These results are taken from PMC4576175.

Sequences of proteins named here, by UniProt entry; tags and fusion partners are left off.
UniProt P20226: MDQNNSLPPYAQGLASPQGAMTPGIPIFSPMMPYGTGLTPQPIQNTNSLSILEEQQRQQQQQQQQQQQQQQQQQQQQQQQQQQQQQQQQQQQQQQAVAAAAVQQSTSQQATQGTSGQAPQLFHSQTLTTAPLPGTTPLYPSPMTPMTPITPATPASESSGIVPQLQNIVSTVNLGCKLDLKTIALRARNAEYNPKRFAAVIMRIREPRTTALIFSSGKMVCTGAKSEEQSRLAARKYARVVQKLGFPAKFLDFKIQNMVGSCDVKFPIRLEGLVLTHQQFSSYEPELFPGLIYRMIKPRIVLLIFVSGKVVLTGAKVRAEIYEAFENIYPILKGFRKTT
UniProt Q7Z6Z7: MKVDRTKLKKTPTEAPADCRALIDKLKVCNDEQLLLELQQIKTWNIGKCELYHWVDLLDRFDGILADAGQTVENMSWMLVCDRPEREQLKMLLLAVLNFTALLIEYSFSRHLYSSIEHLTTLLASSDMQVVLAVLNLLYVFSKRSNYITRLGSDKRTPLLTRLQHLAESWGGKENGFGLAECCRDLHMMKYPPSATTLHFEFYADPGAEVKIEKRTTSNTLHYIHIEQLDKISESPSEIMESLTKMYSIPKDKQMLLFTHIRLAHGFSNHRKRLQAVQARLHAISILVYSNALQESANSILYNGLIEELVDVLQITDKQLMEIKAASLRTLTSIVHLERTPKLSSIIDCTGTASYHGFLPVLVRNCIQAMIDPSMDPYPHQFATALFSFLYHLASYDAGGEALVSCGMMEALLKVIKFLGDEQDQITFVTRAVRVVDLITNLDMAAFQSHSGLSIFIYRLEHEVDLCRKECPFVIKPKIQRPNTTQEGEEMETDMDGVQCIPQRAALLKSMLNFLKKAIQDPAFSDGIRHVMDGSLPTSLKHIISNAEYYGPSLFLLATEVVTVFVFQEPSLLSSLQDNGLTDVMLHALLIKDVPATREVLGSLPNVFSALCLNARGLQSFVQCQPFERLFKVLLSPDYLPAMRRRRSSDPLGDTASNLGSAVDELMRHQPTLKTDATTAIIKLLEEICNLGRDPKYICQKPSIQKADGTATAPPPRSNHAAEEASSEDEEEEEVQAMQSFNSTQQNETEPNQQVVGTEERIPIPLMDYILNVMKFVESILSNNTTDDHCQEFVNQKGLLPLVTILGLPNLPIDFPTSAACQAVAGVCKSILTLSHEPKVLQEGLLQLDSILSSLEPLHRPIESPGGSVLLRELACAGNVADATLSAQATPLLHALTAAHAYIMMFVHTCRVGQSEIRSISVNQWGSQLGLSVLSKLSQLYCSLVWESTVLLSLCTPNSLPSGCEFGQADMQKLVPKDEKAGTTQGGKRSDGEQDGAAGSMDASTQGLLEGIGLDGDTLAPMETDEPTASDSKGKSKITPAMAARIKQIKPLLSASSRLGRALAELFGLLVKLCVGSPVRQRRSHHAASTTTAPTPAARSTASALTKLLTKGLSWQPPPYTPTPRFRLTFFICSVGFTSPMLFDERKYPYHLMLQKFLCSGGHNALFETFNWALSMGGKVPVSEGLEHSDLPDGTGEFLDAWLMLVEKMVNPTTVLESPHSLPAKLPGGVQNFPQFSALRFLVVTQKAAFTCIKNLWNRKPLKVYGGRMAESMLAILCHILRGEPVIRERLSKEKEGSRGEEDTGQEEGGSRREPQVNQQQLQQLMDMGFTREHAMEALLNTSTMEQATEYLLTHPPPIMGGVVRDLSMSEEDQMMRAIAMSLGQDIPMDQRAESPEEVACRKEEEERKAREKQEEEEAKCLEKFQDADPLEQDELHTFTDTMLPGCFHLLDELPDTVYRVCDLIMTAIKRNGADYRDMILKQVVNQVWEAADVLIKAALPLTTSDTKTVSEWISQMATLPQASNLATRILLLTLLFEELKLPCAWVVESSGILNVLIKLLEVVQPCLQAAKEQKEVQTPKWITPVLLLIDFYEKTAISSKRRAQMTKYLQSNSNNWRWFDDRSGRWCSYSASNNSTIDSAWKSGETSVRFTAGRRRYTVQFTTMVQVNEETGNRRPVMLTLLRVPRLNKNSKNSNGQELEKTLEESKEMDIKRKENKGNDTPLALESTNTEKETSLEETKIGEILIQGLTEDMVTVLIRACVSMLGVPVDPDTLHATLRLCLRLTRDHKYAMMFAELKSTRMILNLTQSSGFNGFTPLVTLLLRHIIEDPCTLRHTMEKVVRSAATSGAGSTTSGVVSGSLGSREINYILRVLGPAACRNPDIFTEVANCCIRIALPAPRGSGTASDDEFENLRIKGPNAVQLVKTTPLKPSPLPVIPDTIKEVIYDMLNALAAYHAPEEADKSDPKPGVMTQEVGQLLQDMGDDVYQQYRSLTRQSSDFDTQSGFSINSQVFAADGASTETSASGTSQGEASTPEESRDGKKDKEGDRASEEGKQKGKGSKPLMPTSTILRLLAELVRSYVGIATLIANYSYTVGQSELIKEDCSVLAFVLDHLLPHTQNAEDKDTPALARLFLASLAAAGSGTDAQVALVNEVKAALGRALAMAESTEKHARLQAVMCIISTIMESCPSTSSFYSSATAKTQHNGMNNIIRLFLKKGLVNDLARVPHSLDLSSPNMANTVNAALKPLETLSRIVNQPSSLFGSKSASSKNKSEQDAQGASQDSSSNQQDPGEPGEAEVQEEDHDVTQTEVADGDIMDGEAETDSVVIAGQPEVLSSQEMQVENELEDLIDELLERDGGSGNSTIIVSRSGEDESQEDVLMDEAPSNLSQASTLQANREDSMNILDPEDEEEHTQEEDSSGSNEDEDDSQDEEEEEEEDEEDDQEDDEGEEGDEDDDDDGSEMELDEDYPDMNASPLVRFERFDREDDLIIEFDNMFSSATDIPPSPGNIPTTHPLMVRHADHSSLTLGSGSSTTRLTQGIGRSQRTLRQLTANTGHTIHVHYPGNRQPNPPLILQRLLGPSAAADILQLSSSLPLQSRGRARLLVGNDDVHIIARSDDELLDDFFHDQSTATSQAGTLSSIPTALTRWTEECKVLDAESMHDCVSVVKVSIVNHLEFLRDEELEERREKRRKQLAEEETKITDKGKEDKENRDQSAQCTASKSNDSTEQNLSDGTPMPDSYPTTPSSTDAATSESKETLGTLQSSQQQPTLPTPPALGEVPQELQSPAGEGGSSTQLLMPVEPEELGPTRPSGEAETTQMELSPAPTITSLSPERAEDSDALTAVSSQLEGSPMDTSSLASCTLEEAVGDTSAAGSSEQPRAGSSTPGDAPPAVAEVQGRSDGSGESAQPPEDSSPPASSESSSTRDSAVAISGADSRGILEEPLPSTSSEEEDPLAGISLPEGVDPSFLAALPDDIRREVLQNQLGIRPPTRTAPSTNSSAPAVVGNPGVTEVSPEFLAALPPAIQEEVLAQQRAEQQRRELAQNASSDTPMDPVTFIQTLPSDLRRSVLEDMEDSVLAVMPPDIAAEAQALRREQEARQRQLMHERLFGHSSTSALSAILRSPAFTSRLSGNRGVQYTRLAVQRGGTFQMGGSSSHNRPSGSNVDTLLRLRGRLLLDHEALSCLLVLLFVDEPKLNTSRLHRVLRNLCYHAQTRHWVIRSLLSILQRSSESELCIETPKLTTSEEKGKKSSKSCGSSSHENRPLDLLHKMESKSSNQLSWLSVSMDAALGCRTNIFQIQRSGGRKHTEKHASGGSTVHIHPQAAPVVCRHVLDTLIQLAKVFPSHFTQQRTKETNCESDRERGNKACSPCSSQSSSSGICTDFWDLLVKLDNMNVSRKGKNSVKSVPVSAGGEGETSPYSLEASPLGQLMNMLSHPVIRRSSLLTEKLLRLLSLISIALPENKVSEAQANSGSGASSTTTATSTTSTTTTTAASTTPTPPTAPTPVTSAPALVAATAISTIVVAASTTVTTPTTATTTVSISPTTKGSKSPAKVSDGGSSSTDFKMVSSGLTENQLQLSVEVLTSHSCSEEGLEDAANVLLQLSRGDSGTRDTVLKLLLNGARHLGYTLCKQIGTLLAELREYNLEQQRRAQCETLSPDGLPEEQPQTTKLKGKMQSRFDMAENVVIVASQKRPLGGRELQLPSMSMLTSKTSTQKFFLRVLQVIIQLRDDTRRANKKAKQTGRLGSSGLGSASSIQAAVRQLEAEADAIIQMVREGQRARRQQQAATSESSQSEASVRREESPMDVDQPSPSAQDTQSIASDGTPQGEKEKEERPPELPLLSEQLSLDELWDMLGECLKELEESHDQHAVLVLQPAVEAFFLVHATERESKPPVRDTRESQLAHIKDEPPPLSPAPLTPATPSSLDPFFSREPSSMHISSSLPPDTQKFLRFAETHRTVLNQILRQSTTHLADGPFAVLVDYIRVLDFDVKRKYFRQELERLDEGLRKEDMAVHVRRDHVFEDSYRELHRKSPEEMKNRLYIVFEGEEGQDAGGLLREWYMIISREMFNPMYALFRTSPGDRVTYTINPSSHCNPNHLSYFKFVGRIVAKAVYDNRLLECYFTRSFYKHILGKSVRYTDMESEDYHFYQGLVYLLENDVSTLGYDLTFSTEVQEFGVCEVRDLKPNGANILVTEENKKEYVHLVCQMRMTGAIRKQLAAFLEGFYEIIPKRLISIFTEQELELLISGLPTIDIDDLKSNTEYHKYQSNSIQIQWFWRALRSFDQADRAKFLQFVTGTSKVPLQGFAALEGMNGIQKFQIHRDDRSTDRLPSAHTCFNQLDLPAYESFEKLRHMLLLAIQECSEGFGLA

No constants are given. Whether binding was seen depends on the method and setting. Some results given as binding are weak or reduced against the parent protein; the word gives no strength.

This assay has as its target GST-tagged full length (FL) TBP (UniProt P20226). Put plainly: pull-down; GST-tagged TBP (FL, DBD, TAD) used to pull down purified recombinant Huwe1; western blot with anti-Huwe1 and anti-GST antibodies; both purified.

Turning to “Huwe1, purified recombinant His-tagged wild type (from UniProt Q7Z6Z7 1-4374) (enzyme)”, the binding result is recorded as “binds”.
